# Target: T1, rat trace amine receptor (Rattus norvegicus, UniProt Q923Y9)
# Amino acid sequences for entries named in this document (tags omitted).
# UniProt Q923Y9, whole entry: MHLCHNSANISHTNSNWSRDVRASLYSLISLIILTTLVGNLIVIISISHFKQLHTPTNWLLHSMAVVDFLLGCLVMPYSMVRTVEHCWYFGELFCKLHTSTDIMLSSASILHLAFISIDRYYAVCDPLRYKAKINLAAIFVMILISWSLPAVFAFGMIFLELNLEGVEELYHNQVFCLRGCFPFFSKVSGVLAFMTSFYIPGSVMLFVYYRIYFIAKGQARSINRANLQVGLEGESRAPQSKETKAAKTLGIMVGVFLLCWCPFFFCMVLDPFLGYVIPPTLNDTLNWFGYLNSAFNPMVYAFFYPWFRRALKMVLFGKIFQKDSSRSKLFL
# T1 construct: HEK293 cells stably transfected with the pcDNA3.1/V5/His-TOPO expression vector containing the full-length rat cDNA clone described above; expressed in transfected cells
# Assay type: cell-based
compound,measurement,value
CCN(CC)C(=O)N[C@H]1C=C2c3cccc4[nH]cc(c34)C[C@H]2N(C)C1 [lisuride],"activation of the trace amine receptor / cAMP production, in words",potently activate
